No constants are given. Whether binding was seen depends on the method and setting. In cells and extracts the contact can be indirect. Some binding calls cover weakened binding; strength is not graded here.
Biological target: T1, Orc2p (S. cerevisiae (endogenous in yeast cells)), P32833
T1 chain: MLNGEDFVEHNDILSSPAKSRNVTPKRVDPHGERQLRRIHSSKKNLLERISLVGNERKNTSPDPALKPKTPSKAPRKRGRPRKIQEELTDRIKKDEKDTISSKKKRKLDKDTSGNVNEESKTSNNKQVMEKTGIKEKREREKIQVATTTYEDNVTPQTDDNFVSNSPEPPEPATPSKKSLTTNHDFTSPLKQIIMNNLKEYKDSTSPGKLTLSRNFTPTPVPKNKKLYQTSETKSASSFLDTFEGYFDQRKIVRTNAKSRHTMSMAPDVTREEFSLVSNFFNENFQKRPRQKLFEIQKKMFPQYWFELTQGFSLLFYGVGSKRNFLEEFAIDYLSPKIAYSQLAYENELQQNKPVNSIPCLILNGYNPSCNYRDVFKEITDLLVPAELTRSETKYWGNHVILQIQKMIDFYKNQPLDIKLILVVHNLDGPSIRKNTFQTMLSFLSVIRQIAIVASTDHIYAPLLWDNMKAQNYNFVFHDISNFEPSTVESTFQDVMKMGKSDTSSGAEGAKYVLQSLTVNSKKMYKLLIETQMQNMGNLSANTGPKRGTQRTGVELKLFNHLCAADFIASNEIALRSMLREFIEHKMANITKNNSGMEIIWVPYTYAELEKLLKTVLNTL
Test: co-IP; endogenous proteins in sonicated whole cell lysates of exponentially growing yeast; antibody (Orc1, Orc2, Cdc6, 4H8, H5 or 8GW16) then protein A or protein G beads, 2 hours at 4°C, 4 washes with IP buffer; western blot
Details: remark: other sources report otherwise

Row | Binder | binding
1 | Cdc6p, P09119 1-513 (protein) MSAIPITPTKRIRRNLFDDAPATPPRPLKRKKLQFTDVTPESSPEKLQFGSQSIFLRTKALLQKSSELVNLNSSDGALPARTAEYEQVMNFLAKAISEHRSDSLYITGPPGTGKTAQLDMIIRQKFQSLPLSLSTPRSKDVLRHTNPNLQNLSWFELPDGRLESVAVTSINCISLGEPSSIFQKIFDSFQDLNGPTLQIKNMQHLQKFLEPYHKKTTFVVVLDEMDRLLHANTSETQSVRTILELFLLAKLPTVSFVLIGMANSLDMKDRFLSRLNLDRGLLPQTIVFQPYTAEQMYEIVIQKMSSLPTIIFQPMAIKFAAKKCAGNTGDLRKLFDVLRGSIEIYELEKRFLLSPTRGSLNSAQVPLTPTTSPVKKSYPEPQGKIGLNYIAKVFSKFVNNNSTRTRIAKLNIQQKLILCTIIQSLKLNSDATIDESFDHYIKAITKTDTLAPLQRNEFLEICTILETCGLVSIKKTKCKGKTKRFVDKIDVDLDMREFYDEMTKISILKPFLH | binds
2 | Orc1p, P54784 1-914 (protein) MAKTLKDLQGWEIITTDEQGNIIDGGQKRLRRRGAKTEHYLKRSSDGIKLGRGDSVVMHNEAAGTYSVYMIQELRLNTLNNVVELWALTYLRWFEVNPLAHYRQFNPDANILNRPLNYYNKLFSETANKNELYLTAELAELQLFNFIRVANVMDGSKWEVLKGNVDPERDFTVRYICEPTGEKFVDINIEDVKAYIKKVEPREAQEYLKDLTLPSKKKEIKRGPQKKDKATQTAQISDAETRATDITDNEDGNEDESSDYESPSDIDVSEDMDSGEISADELEEEEDEEEDEDEEEKEARHTNSPRKRGRKIKLGKDDIDASVQPPPKKRGRKPKDPSKPRQMLLISSCRANNTPVIRKFTKKNVARAKKKYTPFSKRFKSIAAIPDLTSLPEFYGNSSELMASRFENKLKTTQKHQIVETIFSKVKKQLNSSYVKEEILKSANFQDYLPARENEFASIYLSAYSAIESDSATTIYVAGTPGVGKTLTVREVVKELLSSSAQREIPDFLYVEINGLKMVKPTDCYETLWNKVSGERLTWAASMESLEFYFKRVPKNKKKTIVVLLDELDAMVTKSQDIMYNFFNWTTYENAKLIVIAVANTMDLPERQLGNKITSRIGFTRIMFTGYTHEELKNIIDLRLKGLNDSFFYVDTKTGNAILIDAAGNDTTVKQTLPEDVRKVRLRMSADAIEIASRKVASVSGDARRALKVCKRAAEIAEKHYMAKHGYGYDGKTVIEDENEEQIYDDEDKDLIESNKAKDDNDDDDDNDGVQTVHITHVMKALNETLNSHVITFMTRLSFTAKLFIYALLNLMKKNGSQEQELGDIVDEIKLLIEVNGSNKFVMEIAKTLFQQGSDNISEQLRIISWDFVLNQLLDAGILFKQTMKNDRICCVKLNISVEEAKRAMNEDETLRNL | no binding
